PubChem BioAssay AID1224827 – NIAID | 2016

- Assay: 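Retest primary hits on a TNF reporter with six siRNAs per gene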 (follow-up of hits)
- Cells: RAW264.7 G9 mouse macrophage reporter clone
- Reagents: single siRNA against mouse genes, 100 nM siRNA
- Duration: siRNA for 2 days, then LPS about 16 h
- Conditions: bacterial lipopolysaccharide (LPS), 10 ng/ml, cells fixed after overnight (about 16 h) stimulation
- Measured: 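TNF promoter reporter red fluorescence in nuclei, background subtracted, normalised per plate and to non-targeting control siRNA, as z-scores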
- Reading the numbers: TNF reporter z-score, mean and TNF reporter z-score: higher = stronger Tnf promoter reporter signal; gene median z, three same-vendor siRNAs: higher = stronger Tnf reporter signal for the gene
- Hit rule: 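An siRNA is called active when its mean z-score over replicates is at least +2 or at most -2; control wells get no call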
The whole screen tested about 3,800 reagents; shown is an unselected part. About 2,200 of them (57%) count as active. 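Active means a strong reporter change in either direction; calls are per siRNA, not per gene; qiagen siRNAs gave weaker effects.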 Reagents against one gene are numbered here.

The first 5 records, to show the layout:
gene knocked down,reagent no.,"TNF reporter z-score, mean","gene median z, three same-vendor siRNAs","TNF reporter z-score, repeat 1","TNF reporter z-score, repeat 2",call
Cse1l (GeneID 110750),1,6.63,-3.05,4.54,8.72,active
Cse1l (GeneID 110750),2,-3.11,-3.05,-2.14,-4.07,active
Cse1l (GeneID 110750),3,-4.04,-3.05,-3.96,-4.13,active
Cse1l (GeneID 110750),4,-1.24,-3.28,0.278,-2.75,inactive
Cse1l (GeneID 110750),5,-2.46,-3.28,-1.12,-3.8,active

Main list, repeating the preview:
gene knocked down,reagent no.,"TNF reporter z-score, mean","gene median z, three same-vendor siRNAs","TNF reporter z-score, repeat 1","TNF reporter z-score, repeat 2",call
Cse1l (GeneID 110750),1,6.63,-3.05,4.54,8.72,active
Cse1l (GeneID 110750),2,-3.11,-3.05,-2.14,-4.07,active
Cse1l (GeneID 110750),3,-4.04,-3.05,-3.96,-4.13,active
Cse1l (GeneID 110750),4,-1.24,-3.28,0.278,-2.75,inactive
Cse1l (GeneID 110750),5,-2.46,-3.28,-1.12,-3.8,active
Cse1l (GeneID 110750),6,-4.24,-3.28,-4.02,-4.47,active
Mrps10 (GeneID 64657),1,11.5,-0.445,7.37,15.6,active
Mrps10 (GeneID 64657),2,-0.445,-0.445,-2.46,1.57,inactive
Mrps10 (GeneID 64657),3,-4.68,-0.445,-4.7,-4.65,active
Mrps10 (GeneID 64657),4,2.82,0.475,5.14,0.507,active
Mrps10 (GeneID 64657),5,0.226,0.475,0.521,-0.0691,inactive
Mrps10 (GeneID 64657),6,-0.179,0.475,0.443,-0.8,inactive
Ch25h (GeneID 12642),1,-0.269,-3.35,-1.18,0.64,inactive
Ch25h (GeneID 12642),2,-3.35,-3.35,-3.79,-2.9,active
Ch25h (GeneID 12642),3,-5.05,-3.35,-4.41,-5.69,active
Ch25h (GeneID 12642),4,2.23,0.276,4.14,0.313,active
Ch25h (GeneID 12642),5,1.03,0.276,1.82,0.239,inactive
Ch25h (GeneID 12642),6,-1.32,0.276,-1.05,-1.58,inactive
Cyp4a31 (GeneID 666168),1,2.93,-0.978,5.72,0.142,active
Cyp4a31 (GeneID 666168),2,-0.978,-0.978,-0.836,-1.12,inactive
Cyp4a31 (GeneID 666168),3,-2.42,-0.978,-3.23,-1.61,active
2900005J15Rik (GeneID 67261),1,4.52,1.43,4.19,4.85,active
2900005J15Rik (GeneID 67261),2,1.43,1.43,1.5,1.37,inactive
2900005J15Rik (GeneID 67261),3,-3.81,1.43,-4.01,-3.6,active
2900005J15Rik (GeneID 67261),4,3.34,0.717,5.6,1.08,active
2900005J15Rik (GeneID 67261),5,1.61,0.717,2.87,0.352,inactive
2900005J15Rik (GeneID 67261),6,-1.49,0.717,-1.04,-1.95,inactive
Rnf8 (GeneID 58230),1,-3.96,-4.26,-4.29,-3.63,active
Rnf8 (GeneID 58230),2,-4.09,-4.26,-3.95,-4.23,active
Rnf8 (GeneID 58230),3,-4.98,-4.26,-4.93,-5.04,active
Rnf8 (GeneID 58230),4,1.38,-1.34,3.97,-1.21,inactive
Rnf8 (GeneID 58230),5,0.672,-1.34,2.82,-1.48,inactive
Rnf8 (GeneID 58230),6,-2.09,-1.34,-2.27,-1.9,active
Gdi2 (GeneID 14569),1,13.1,-1.7,8.48,17.8,active
Gdi2 (GeneID 14569),2,-1.7,-1.7,-2.01,-1.39,inactive
Gdi2 (GeneID 14569),3,-3.45,-1.7,-3.89,-3.01,active
Gdi2 (GeneID 14569),4,3.42,1.76,6.54,0.3,active
Gdi2 (GeneID 14569),5,1.32,1.76,4.12,-1.48,inactive
Gdi2 (GeneID 14569),6,1.06,1.76,3.23,-1.11,inactive
Eloc (GeneID 67923),1,-1.82,-3.51,-2.27,-1.37,inactive
Eloc (GeneID 67923),2,-3.51,-3.51,-3.48,-3.54,active
Eloc (GeneID 67923),3,-4.07,-3.51,-3.69,-4.44,active
Eloc (GeneID 67923),4,-0.0878,-0.999,1.62,-1.8,inactive
Eloc (GeneID 67923),5,-0.521,-0.999,0.197,-1.24,inactive
Eloc (GeneID 67923),6,-1.1,-0.999,-0.759,-1.45,inactive
Fgf2 (GeneID 14173),1,-2.43,-4.71,-1.93,-2.92,active
Fgf2 (GeneID 14173),2,-4.74,-4.71,-4.73,-4.75,active
Fgf2 (GeneID 14173),3,-4.91,-4.71,-5.13,-4.69,active
Fgf2 (GeneID 14173),4,5.13,1.22,9.2,1.05,active
Fgf2 (GeneID 14173),5,2.3,1.22,4.74,-0.149,active
Fgf2 (GeneID 14173),6,0.449,1.22,1.39,-0.487,inactive
Cercam (GeneID 99151),1,3.87,0.182,5.09,2.66,active
Cercam (GeneID 99151),2,0.171,0.182,-0.0135,0.355,inactive
Cercam (GeneID 99151),3,-1.92,0.182,-3.85,0.0087,inactive
Cercam (GeneID 99151),4,0.813,-0.734,2.2,-0.57,inactive
Cercam (GeneID 99151),5,0.163,-0.734,1.22,-0.897,inactive
Cercam (GeneID 99151),6,-1.83,-0.734,-1.79,-1.87,inactive
